Values from PubChem BioAssay AID1259290 (Sanger Institute, 2017)

- Screen: 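Kinases whose loss kills colorectal cancer cells alone or alongside targeted drugs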 (primary screen)
- Cell system: human SNUC1 colorectal cancer cells
- Knock-down reagent: siRNA pool against human genes
- Challenge: anchor drugs BYL719 1 µM, cetuximab 5 µg/ml or trametinib 10 nM, or DMSO vehicle alone
- Detection: 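Viability averaged over replicates and scaled to non-targeting siRNA, robust z-score with no drug, and synergy scores by drug for BYL719, cetuximab and trametinib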
- Direction: viability z-score, siRNA alone: higher = more viable cells; low values mean essential gene; viability vs control, siRNA alone: higher = more viable cells; synergy score with BYL719 and synergy score with Cetuximab and synergy score with Trametinib: higher = stronger synthetic lethal effect with drug
- Rule for the call: 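Essential when the robust viability z-score with siRNA alone falls below -3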
- Calls: active = essential: knock-down alone cut viability (z below -3); inactive = no clear viability loss with knock-down alone
Here is an unselected part of 794 deposited reagents. Over the whole deposit, 9 (1.1%) were called active. 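Calls rest on knock-down alone, not drug synergy; synergy above 0.15 was grouped apart and does not affect calls.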 Unmarked entries are inactive. No viability above 1 is reported: the scale is capped. No sequences are given here. The record does not give: the amount of reagent, the time to read-out.

no.	gene	viability z-score, siRNA alone	viability vs control, siRNA alone	synergy score with BYL719	synergy score with Cetuximab	synergy score with Trametinib
1	PTK6 (GeneID 5753)	0.243	0.938	-0.2	-0.0972	-0.0844
2	MYLK2 (GeneID 85366)	0.922	0.999	-0.199	-0.046	0.137
3	EPHA5 (GeneID 2044)	0.936	1	-0.134	-0.0447	0.0107
4	ALPK1 (GeneID 80216)	-1.24	0.804	-0.355	-0.139	-0.22
5	AKT1 (GeneID 207)	0.936	1	-0.198	0.0126	-0.218
6	PKN3 (GeneID 29941)	0.767	0.985	-0.0161	0.142	0.0536
7	CAMK2A (GeneID 815)	-0.995	0.826	-0.116	-0.0469	-0.0852
8	DLG1 (GeneID 1739)	-0.228	0.895	0.0309	-0.058	-0.0501
9	ERBB2 (GeneID 2064)	-0.214	0.896	-0.281	-0.00819	0.0211
10	DAPK3 (GeneID 1613)	-1.85	0.749	-0.187	-0.0225	-0.101
11	GAK (GeneID 2580)	-1.22	0.806	-0.167	0.109	0.0406
12	PTEN (GeneID 5728)	0.604	0.97	-0.0521	-0.0287	0.0155
13	GSK3A (GeneID 2931)	0.58	0.968	-0.155	0.0194	-0.0557
14	PRPS2 (GeneID 5634)	-0.885	0.836	-0.249	0.0784	-0.0543
15	PLK4 (GeneID 10733)	-2.56	0.685	-0.25	-0.029	-0.262
16	IKBKE (GeneID 9641)	-0.0583	0.91	-0.0198	0.0459	0.0684
17	GSK3B (GeneID 2932)	0.407	0.952	-0.121	-0.0903	-0.0243
18	FGFR4 (GeneID 2264)	-1.43	0.787	-0.0818	-0.111	-0.0606
19	GATA3 (GeneID 2625)	0.936	1	0.0153	-0.0116	0.0359
20	PIP5K1A (GeneID 8394)	-1.65	0.767	0.0106	0.112	0.0286
21	CHEK1 (GeneID 1111)	-4.18 (active)	0.539	-0.115	-0.0598	-0.136
22	WEE1 (GeneID 7465)	-1.31	0.798	-0.0161	-0.21	0.0487
23	CDK11B (GeneID 984)	0.801	0.988	-0.119	0.0807	-0.0618
24	AK4 (GeneID 205)	-0.492	0.871	0.0247	0.00894	0.0118
25	WNK1 (GeneID 65125)	0.936	1	-0.198	-0.0447	0.000774
26	BCR (GeneID 613)	-0.231	0.895	-0.265	0.0217	-0.0752
27	IKBKB (GeneID 3551)	-0.853	0.839	-0.241	-0.195	-0.112
28	CSNK1G2 (GeneID 1455)	0.936	1	-0.198	-0.0447	-0.105
29	HSPB8 (GeneID 26353)	0.875	0.995	0.0158	-0.05	0.0422
30	DTYMK (GeneID 1841)	-0.546	0.866	-0.189	0.0392	0.049
31	DAPK2 (GeneID 23604)	-0.188	0.899	-0.203	-0.0042	0.0197
32	PI4KA (GeneID 5297)	0.409	0.953	-0.236	0.0677	-0.00329
33	MYLK3 (GeneID 91807)	-1.59	0.773	-0.269	-0.0967	-0.116
34	NME1 (GeneID 4830)	0.936	1	-0.198	-0.0447	-0.0763
35	GOLGA5 (GeneID 9950)	0.189	0.933	-0.137	-0.0289	-0.0225
36	CDKN2D (GeneID 1032)	-1.02	0.823	-0.123	-0.147	0.129
37	DGKD (GeneID 8527)	0.886	0.995	0.0224	0.118	0.126
38	CDC42BPG (GeneID 55561)	0.344	0.947	-0.144	0.0201	0.0148
39	RPS6KA4 (GeneID 8986)	-0.212	0.897	-0.141	-0.02	0.0238

Next part; the last 5 above are carried over.
no.	gene	viability z-score, siRNA alone	viability vs control, siRNA alone	synergy score with BYL719	synergy score with Cetuximab	synergy score with Trametinib
35	GOLGA5 (GeneID 9950)	0.189	0.933	-0.137	-0.0289	-0.0225
36	CDKN2D (GeneID 1032)	-1.02	0.823	-0.123	-0.147	0.129
37	DGKD (GeneID 8527)	0.886	0.995	0.0224	0.118	0.126
38	CDC42BPG (GeneID 55561)	0.344	0.947	-0.144	0.0201	0.0148
39	RPS6KA4 (GeneID 8986)	-0.212	0.897	-0.141	-0.02	0.0238
40	HK3 (GeneID 3101)	-0.0301	0.913	-0.0805	0.0232	-0.00937
41	CILK1 (GeneID 22858)	0.724	0.981	-0.0849	0.0885	0.0217
42	PRKD3 (GeneID 23683)	-0.791	0.844	0.0278	-0.0506	0.0196
43	PHKA2 (GeneID 5256)	0.288	0.942	-0.0527	0.0688	-0.0946
44	ULK2 (GeneID 9706)	0.936	1	-0.198	0.0272	-0.02
45	CPNE3 (GeneID 8895)	-0.114	0.905	-0.224	0.019	0.0205
46	CLK1 (GeneID 1195)	0.936	1	-0.185	-0.0447	-0.0146
47	PRKAA1 (GeneID 5562)	-2.16	0.721	-0.0586	-0.0862	-0.0666
48	MTOR (GeneID 2475)	0.936	1	-0.0833	-0.00927	0.095
49	PRKAG2 (GeneID 51422)	0.385	0.95	0.0272	-0.0356	-0.00304
50	CAMK2B (GeneID 816)	-0.286	0.89	0.0296	0.0595	0.0399
51	FN3K (GeneID 64122)	0.555	0.966	-0.226	-0.0775	0.0791
52	PDGFRL (GeneID 5157)	0.936	1	-0.122	0.0593	0.0282
53	FOXP1 (GeneID 27086)	0.936	1	0.0953	0.169	0.144
54	RBKS (GeneID 64080)	0.936	1	-0.198	0.0917	-0.143
55	FES (GeneID 2242)	0.5	0.961	-0.107	0.147	-0.0536
56	OXSR1 (GeneID 9943)	-0.413	0.878	-0.296	-0.0365	-0.144
57	PIK3C2A (GeneID 5286)	-1.71	0.762	-0.245	0.0121	-0.061
58	HUS1 (GeneID 3364)	-0.68	0.854	0.0641	0.0967	0.029
59	MELK (GeneID 9833)	0.799	0.988	-0.144	-0.0533	0.0468
60	PRKCSH (GeneID 5589)	-1.41	0.789	-0.163	-0.0641	-0.0659
61	PRKD1 (GeneID 5587)	0.936	1	-0.0346	-0.0447	-0.0453
62	CDK17 (GeneID 5128)	-0.916	0.833	-0.118	-0.117	-0.0577
63	CAMKK2 (GeneID 10645)	0.936	1	-0.195	-0.0238	-0.131
